Experimental data as given in the supplement of paper PMC10849652.
The other results are listed elsewhere or left out.

By UniProt entry, the sequences of proteins in these tests, tags left out. Where a name states a change or a piece, a line headed by the entry shows the natural chain unless it says otherwise.
UniProt Q96EY1: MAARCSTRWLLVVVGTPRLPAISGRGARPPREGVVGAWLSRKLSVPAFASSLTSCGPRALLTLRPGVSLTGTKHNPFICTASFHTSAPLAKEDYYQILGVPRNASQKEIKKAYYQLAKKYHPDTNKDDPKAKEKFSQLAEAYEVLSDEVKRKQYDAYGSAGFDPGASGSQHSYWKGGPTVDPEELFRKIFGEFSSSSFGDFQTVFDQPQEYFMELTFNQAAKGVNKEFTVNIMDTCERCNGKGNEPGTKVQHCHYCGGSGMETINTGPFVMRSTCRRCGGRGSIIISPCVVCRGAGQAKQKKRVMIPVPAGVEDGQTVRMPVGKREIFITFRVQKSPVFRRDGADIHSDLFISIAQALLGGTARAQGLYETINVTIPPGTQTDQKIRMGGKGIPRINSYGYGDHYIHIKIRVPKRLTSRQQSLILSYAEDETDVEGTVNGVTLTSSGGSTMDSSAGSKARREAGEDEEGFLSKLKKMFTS
UniProt Q13574: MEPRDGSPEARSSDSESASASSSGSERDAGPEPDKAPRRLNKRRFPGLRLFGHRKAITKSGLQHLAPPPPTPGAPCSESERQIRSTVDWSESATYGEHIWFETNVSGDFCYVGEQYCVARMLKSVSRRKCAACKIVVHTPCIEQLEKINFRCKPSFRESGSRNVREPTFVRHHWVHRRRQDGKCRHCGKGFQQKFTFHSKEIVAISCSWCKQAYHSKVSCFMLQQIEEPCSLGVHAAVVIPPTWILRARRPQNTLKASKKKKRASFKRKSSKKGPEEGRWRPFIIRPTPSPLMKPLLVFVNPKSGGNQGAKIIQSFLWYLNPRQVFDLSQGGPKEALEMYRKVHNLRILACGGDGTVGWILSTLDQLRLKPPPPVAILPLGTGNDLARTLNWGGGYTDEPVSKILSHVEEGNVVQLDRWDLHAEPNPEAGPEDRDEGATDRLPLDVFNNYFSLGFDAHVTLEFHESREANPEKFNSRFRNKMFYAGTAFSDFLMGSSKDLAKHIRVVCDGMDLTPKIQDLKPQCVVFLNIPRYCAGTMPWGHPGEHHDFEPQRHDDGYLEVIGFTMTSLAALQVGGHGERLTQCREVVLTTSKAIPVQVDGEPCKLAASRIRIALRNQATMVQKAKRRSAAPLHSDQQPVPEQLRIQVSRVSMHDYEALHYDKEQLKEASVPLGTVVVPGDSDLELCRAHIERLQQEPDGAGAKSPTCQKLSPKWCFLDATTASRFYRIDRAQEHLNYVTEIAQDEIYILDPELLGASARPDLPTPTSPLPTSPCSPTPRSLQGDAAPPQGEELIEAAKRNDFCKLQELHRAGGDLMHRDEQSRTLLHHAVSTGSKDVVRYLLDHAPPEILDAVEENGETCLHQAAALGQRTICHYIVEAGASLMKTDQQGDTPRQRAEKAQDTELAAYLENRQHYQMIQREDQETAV
UniProt Q9NW81: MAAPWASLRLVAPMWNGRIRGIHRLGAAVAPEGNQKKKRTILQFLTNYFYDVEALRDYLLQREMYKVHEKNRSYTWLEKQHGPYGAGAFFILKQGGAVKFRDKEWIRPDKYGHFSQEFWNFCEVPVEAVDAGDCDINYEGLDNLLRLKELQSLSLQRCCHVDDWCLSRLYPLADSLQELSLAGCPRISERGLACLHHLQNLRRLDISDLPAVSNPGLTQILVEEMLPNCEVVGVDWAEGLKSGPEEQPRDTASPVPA
UniProt Q4LDG9: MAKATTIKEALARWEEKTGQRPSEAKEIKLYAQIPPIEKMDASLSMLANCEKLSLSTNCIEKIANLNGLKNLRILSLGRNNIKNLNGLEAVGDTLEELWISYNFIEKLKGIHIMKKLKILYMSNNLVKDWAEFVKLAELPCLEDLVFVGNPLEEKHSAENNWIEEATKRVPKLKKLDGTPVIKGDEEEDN
UniProt Q7Z3D6: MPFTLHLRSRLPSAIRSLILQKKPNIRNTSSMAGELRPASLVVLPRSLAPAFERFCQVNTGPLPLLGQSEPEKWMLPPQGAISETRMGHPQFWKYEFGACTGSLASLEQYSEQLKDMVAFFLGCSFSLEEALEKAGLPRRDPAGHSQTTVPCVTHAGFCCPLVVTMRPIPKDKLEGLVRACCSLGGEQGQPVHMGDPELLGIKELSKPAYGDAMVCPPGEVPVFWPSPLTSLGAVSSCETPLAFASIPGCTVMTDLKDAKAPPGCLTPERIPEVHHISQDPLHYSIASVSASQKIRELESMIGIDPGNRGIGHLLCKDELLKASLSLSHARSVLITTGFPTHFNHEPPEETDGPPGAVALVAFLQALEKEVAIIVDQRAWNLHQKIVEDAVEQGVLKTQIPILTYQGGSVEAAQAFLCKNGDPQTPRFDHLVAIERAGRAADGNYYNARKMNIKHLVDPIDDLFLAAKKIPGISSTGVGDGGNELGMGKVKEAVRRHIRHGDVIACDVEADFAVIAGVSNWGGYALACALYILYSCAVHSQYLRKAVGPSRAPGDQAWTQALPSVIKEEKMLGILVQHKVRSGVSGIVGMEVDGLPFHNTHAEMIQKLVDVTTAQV
UniProt P98153: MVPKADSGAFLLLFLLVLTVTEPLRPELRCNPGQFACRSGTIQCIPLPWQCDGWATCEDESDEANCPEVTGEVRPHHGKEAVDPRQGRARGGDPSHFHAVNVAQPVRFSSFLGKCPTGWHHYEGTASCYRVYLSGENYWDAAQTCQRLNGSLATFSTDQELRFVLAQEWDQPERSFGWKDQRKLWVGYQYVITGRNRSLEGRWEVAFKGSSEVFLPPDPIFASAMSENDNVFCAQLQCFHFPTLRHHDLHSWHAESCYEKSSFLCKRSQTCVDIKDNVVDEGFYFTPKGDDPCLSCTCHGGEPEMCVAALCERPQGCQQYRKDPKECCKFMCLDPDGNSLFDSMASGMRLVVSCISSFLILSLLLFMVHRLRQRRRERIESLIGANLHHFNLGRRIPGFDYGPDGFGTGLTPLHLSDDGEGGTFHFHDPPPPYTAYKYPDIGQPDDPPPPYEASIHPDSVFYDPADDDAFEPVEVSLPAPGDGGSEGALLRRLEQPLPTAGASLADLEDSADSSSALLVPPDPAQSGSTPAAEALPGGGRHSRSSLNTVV
UniProt Q96HP0: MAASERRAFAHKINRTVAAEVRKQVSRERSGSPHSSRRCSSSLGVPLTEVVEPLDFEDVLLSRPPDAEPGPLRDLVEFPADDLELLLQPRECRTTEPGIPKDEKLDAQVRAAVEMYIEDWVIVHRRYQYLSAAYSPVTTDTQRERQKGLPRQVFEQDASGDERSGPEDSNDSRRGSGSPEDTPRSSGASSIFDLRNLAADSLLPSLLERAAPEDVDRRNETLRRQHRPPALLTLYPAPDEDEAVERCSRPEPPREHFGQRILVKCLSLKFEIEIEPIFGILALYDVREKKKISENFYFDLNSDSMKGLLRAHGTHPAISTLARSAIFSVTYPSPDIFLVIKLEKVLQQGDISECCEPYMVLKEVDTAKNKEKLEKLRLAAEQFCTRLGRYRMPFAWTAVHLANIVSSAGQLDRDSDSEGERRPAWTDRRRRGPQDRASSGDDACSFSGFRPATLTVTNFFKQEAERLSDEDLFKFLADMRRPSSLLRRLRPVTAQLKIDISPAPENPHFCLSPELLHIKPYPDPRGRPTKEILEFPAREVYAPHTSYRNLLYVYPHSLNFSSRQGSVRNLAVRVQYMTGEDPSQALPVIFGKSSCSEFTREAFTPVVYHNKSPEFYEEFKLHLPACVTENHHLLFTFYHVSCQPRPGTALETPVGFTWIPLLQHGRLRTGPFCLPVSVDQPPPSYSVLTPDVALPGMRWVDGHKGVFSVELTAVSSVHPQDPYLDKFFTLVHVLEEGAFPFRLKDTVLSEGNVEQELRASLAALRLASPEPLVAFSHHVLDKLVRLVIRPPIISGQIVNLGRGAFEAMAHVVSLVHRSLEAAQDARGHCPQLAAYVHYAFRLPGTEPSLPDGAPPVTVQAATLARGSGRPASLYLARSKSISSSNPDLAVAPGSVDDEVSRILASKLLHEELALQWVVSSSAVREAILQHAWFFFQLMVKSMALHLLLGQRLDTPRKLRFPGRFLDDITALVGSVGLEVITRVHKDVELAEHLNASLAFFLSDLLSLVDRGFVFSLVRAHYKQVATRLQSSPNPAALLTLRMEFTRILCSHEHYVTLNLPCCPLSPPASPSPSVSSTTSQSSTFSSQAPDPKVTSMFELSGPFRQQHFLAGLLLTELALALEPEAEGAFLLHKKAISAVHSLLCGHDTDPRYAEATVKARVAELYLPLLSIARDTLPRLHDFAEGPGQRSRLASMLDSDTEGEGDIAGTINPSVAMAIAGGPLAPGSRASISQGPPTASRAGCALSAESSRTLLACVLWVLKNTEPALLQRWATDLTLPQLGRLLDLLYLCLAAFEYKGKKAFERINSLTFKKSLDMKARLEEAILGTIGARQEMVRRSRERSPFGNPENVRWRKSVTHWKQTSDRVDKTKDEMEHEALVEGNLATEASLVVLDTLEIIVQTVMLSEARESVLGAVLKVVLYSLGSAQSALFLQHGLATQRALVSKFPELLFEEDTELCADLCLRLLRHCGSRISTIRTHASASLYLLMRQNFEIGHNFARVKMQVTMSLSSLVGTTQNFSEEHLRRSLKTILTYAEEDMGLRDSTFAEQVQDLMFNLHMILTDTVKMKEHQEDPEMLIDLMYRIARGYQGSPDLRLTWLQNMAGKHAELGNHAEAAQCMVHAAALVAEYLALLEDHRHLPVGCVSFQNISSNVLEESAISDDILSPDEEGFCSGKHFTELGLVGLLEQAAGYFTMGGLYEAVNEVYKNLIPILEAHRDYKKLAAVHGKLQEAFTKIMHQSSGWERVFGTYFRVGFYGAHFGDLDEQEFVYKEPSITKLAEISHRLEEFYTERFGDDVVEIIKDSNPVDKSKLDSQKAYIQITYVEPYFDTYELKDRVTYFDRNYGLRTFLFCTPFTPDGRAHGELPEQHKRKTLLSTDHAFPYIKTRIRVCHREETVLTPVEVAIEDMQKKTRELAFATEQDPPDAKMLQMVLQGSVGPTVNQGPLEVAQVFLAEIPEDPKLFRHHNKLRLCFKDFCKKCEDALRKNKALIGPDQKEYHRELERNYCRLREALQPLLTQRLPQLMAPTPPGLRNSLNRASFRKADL
UniProt Q8N5I4: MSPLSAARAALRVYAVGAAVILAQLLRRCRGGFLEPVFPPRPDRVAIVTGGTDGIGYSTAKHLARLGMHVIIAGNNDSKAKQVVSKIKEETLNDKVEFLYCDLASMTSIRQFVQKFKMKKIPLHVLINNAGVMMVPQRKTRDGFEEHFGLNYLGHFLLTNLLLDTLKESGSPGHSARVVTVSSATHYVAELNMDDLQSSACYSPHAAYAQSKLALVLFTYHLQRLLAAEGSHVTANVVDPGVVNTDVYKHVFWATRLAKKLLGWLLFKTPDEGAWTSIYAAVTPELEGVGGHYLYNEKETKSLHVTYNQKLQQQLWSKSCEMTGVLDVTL

Legend:
Test in all cases: log2 fold change, soluble protein after heating vs DMSO (PISA); higher = thermal stabilisation; K562 lysate, 10 uM; active = over 0.2 and 3.5 SD of the protein, either way, in both replicates (recomputed)
ibrutinib = compound: C=CC(=O)N1CCC[C@@H](n2nc(-c3ccc(Oc4ccccc4)cc3)c3c(N)ncnc32)C1 [ibrutinib]
Method in brief: (§1)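 Log-two fold change in thermal stability relative to solvent controls is reported from duplicates. For each sample, crude K562 extract from dounce-homogenised pellets in PBS pH 7.4 with 1 mM MgCl2, at 1 mg/mL protein, was treated with 10 μM compound for 30 min. Aliquots heated for 3 min across 48°C-58°C were pooled, brought to 0.5% NP-40 at 4°C and cleared at 21,000xg for 90 min. The supernatant was quantified by TMTpro 16plex LC-MS/MS with channel sums equalised.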

[1] = compound: CC(=O)c1cnc2ccc(-c3cc(Cl)c(O)c(Cl)c3)nc2c1N[C@H]1CC[C@H](CN(C)C)CC1
Method in brief: as §1

ralimetinib = compound: CC(C)(C)Cn1c(N)nc2ccc(-c3[nH]c(C(C)(C)C)nc3-c3ccc(F)cc3)nc21 [ralimetinib]
Method in brief: as §1

[2] = compound: CC(C)(O)CC(=O)NCCn1ccc2ncnc(Nc3ccc(Oc4cccc(C(F)(F)F)c4)c(Cl)c3)c21
Method in brief: as §1

[3] = compound: CC(C)C1=C2N=C(C=C(N2N=C1)NCC3=CC=CC=C3)NCCCCCCN
Method in brief: as §1

[4] = compound: CC1=C(C(CC(=O)N1)C2=CC=C(C=C2)C(F)(F)F)C(=O)NC3=C(C=C4C(=C3)C=NN4)F
Method in brief: as §1

[5] = compound: CC1=C(C2=C(C=C1)C(=O)C3=CC=CC=C3N2CCCN)C
Method in brief: as §1

[6] = compound: CC1=C(C=C(C=C1)NC(=O)C2=CC(=CC=C2)C(C)(C)C#N)NC3=CC4=C(C=C3)N=CN(C4=O)C
Method in brief: as §1

[7] = compound: CC1=C(C=C(C=C1)NC(=O)C2=CC(=CC=C2)N(C)C)NC(=O)C3=CC=C(C=C3)O
Method in brief: as §1

[8] = compound: CC1=CC=C(C=C1)SC2=C3C=C(SC3=CN=C2)C(=O)N
Method in brief: as §1

Measured: log2 fold change

DOCK9 isoform 4 (UniProt Q9BZ29)
inactive: ibrutinib -0.031 | [1] 0.007 | ralimetinib -0.06 | [2] 0.001 | [3] -0.038 | [4] 0.062 | [5] -0.048 | [6] -0.06 | [7] 0.06 | [8] -0.008

DGKH (UniProt Q86XP1)
inactive: ibrutinib 0.039 | ralimetinib -0.028 | [2] -0.467 | [3] 0.01 | [4] 0.062 | [5] 0.096 | [6] -0.027 | [7] -0.149

DNAH5 (UniProt Q8TE73)
inactive: ibrutinib -0.064 | [1] -0.009 | ralimetinib -0.045 | [2] -0.138 | [3] 0.076 | [4] 0.062 | [5] 0.014 | [7] 0.019 | [8] 0.086

DNAJA3 isoform 2 (UniProt Q96EY1)
inactive: ibrutinib 0.005 | ralimetinib 0.03 | [2] -0.089 | [3] -0.046 | [5] -0.074 | [7] -0.036

DGKZ (UniProt Q13574)
inactive: ibrutinib 0.011 | [1] 0.026 | ralimetinib 0.016 | [2] -0.041 | [3] 0.014 | [4] 0 | [5] -0.038 | [6] 0.059 | [7] 0.009 | [8] -0.02

DNPEP (UniProt C9JBE1)
inactive: ibrutinib -0.056 | [1] -0.048 | [4] -0.021 | [8] -0.042

DNAJB1 (UniProt M0R128)
inactive: ibrutinib -0.053 | [1] -0.104 | ralimetinib -0.227 | [2] -0.25 | [3] 0.149 | [4] -0.127 | [7] 0.115 | [8] 0.018

DIAPH3 (UniProt Q9NSV4)
inactive: ibrutinib 0.012 | [1] 0.093 | ralimetinib 0.086 | [2] -0.032 | [3] -0.066 | [4] 0.043 | [5] 0.005 | [6] -0.011 | [7] 0.038 | [8] -0.035

DNTTIP2 (UniProt Q5QJE6)
inactive: ibrutinib 0.149 | [1] -0.033 | [3] 0.023 | [4] 0.273 | [5] -0.003 | [6] 0.03 | [8] 0.053

DMAC2 isoform 4 (UniProt Q9NW81)
inactive: ibrutinib -0.073 | [1] 0.111 | ralimetinib -0.092 | [2] -0.148 | [3] -0.048 | [4] -0.057 | [6] 0 | [7] -0.008 | [8] 0

DNAL1 (UniProt Q4LDG9)
inactive: ibrutinib 0.013 | ralimetinib 0.013 | [2] -0.173 | [3] -0.106 | [5] -0.03 | [6] 0.14 | [7] 0.005

Pulled one by one from the list above, two records:
DNTTIP2 (UniProt Q5QJE6)
inactive: ibrutinib 0.149 | [1] -0.033 | [3] 0.023 | [4] 0.273 | [5] -0.003 | [6] 0.03 | [8] 0.053

DMAC2 isoform 4 (UniProt Q9NW81)
inactive: ibrutinib -0.073 | [1] 0.111 | ralimetinib -0.092 | [2] -0.148 | [3] -0.048 | [4] -0.057 | [6] 0 | [7] -0.008 | [8] 0

Following part

DLG1 isoform 3 (UniProt Q12959)
inactive: ibrutinib 0.1 | ralimetinib 0.111 | [2] -0.084 | [7] 0.125

DNA2 (UniProt P51530)
inactive: ralimetinib 0.016 | [2] 0.029 | [3] -0.06 | [4] -0.007 | [5] 0.002 | [6] -0.02 | [7] 0.001

DGLUCY isoform 2 (UniProt Q7Z3D6)
inactive: [6] 0.004

DGCR2 (UniProt P98153)
inactive: [1] 0.092 | ralimetinib 0.082 | [2] 0.012 | [3] 0.154 | [4] 0.163 | [5] -0.028 | [7] -0.024 | [8] 0.019

DNMT3A (UniProt Q9Y6K1)
inactive: [1] -0.309 | [3] -0.021 | [8] -0.106

DOCK6 (UniProt Q96HP0)
inactive: [3] -0.197 | [5] -0.243

DMTN isoform 2 (UniProt Q08495)
inactive: [1] -0.04 | [3] 0.058 | [5] -0.106 | [6] 0.088 | [8] 0.214

DHRSX (UniProt Q8N5I4)
inactive: ralimetinib -0.073 | [2] -0.122 | [3] -0.064 | [5] -0.066 | [7] -0.049
